# Data as given in the supplement of paper PMC7877785.
# ± gives the uncertainty stated by the source. Many entries were measured with a wide error.
# Experiment: self-splicing fitness, log relative to wild type (ln ratio); higher = more splicing; Tetrahymena group I intron in knt gene, E. coli kanamycin selection, DiMSum; sequences stand for … in CUCUCU…GGAGGGAAAAGUUAUCAGGCAUGCACCUGGUAGCUAGUCUUUAAACCAAUAGAUUGCAUCGGUUUAAAAGGCAAGACCGUCAAAUUGCGGGAAAGGGGUCAACAGCCGUUCAGUACCAAGUCUCAGGGGAAACUUUGAGAUGGCCUUGCAAAGGGUAUGGUAAUAAGCUGACGGACAUGGUCCUAACCACGCAGCCAAGUCCUAAGUCAACAGAUCUUCUGUUGAUAUGGAUGCAGUUCACAGACUAAAUGUCGGUCGGGGAAGAUGUAUUCUUCUCAUAAGAUAUAGUCGGACCUCUCCUUAAUGGGAGCUAGCGGAUGAAGUGAUGCAACACUGGAGCCGCUGGGAACUAAUUUGUAUGCGAAAGUAUAUUGAUUAGUUUUGGAGUACUCGUGGUCG
# Outline: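 Fitness was computed with DiMSum as the error-weighted combination of replicate fold changes, kanamycin versus none, each normalised to wild type. The library randomised all eight intron nucleotides of the P1ex region, with the intron placed in the knt kanamycin-resistance gene on pET-22b(+) in E. coli BL21(DE3). Six replicate transformations were grown overnight at 37°C or 30°C on LB agar with or without 25 μg/mL kanamycin, plus 100 μg/mL carbenicillin, 50 μM IPTG and 0.2% rhamnose. Pooled colonies were amplicon-sequenced on an Illumina HiSeq 2500.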
Sequence,self-splicing fitness (ln) (37 °C),self-splicing fitness (ln) (30 °C)
CUUGAGCAAUAUUACGACCC,-1.39 ± 1.2,–
GCGGAGCAAUAUUACGAAUG,-1.38 ± 0.71,-2.52 ± 0.53
CUCUAGCAAUAUUACGUACC,-3.88 ± 0.72,-3.67 ± 0.6
UGCAAGCAAUAUUACGUCAC,-2.27 ± 0.24,-2.88 ± 0.47
AUCCAGCAAUAUUACGUCGG,-2.43 ± 0.13,-2.71 ± 0.089
AUCGAGCAAUAUUACGGGGC,-4.15 ± 1,–
AGGGAGCAAUAUUACGAGAA,-2.13 ± 0.65,-2.83 ± 0.55
CUCGAGCAAUAUUACGAUGU,–,-4.86 ± 0.71
GUUGAGCAAUAUUACGGAAG,-3.64 ± 0.73,-3.26 ± 0.52
CCCAAGCAAUAUUACGGAGA,–,-4.12 ± 0.59
GGUCAGCAAUAUUACGCUUA,0.296 ± 0.078,0.0476 ± 0.059
UAAGAGCAAUAUUACGCUGA,–,-3.94 ± 0.6
CCAUAGCAAUAUUACGAAAU,-3.14 ± 0.74,–
ACAUAGCAAUAUUACGCCAA,–,-2.19 ± 0.5
GGUUAGCAAUAUUACGAGAC,–,-2.36 ± 1.2
UCUGAGCAAUAUUACGACAG,-1.04 ± 0.15,-1.02 ± 0.12
CGACAGCAAUAUUACGGAUC,-2.64 ± 1.1,–
UGGUAGCAAUAUUACGGAAU,–,-4.57 ± 0.73
UAGGAGCAAUAUUACGCUGG,-0.826 ± 0.28,-2.38 ± 0.43
AAGGAGCAAUAUUACGAAUU,-2.1 ± 0.65,-3.3 ± 0.53
GCAGAGCAAUAUUACGAACG,–,-2.03 ± 0.66
UAAGAGCAAUAUUACGCUCU,-2.5 ± 0.55,-2.21 ± 1.1
AGGCAGCAAUAUUACGUCAA,-0.465 ± 0.095,-1.25 ± 0.098
UGCCAGCAAUAUUACGUACU,-1.19 ± 0.19,0.158 ± 0.14
CCUUAGCAAUAUUACGCCAG,–,-4.12 ± 0.52

# A second format for part of the listing above:
Sequence | self-splicing fitness (ln) (37 °C) | self-splicing fitness (ln) (30 °C)
CUCGAGCAAUAUUACGAUGU | – | -4.86 ± 0.71
GGUUAGCAAUAUUACGAGAC | – | -2.36 ± 1.2

# The results go on.

Sequence,self-splicing fitness (ln) (37 °C),self-splicing fitness (ln) (30 °C)
GCGGAGCAAUAUUACGAUAA,–,-3.16 ± 0.76
CGAGAGCAAUAUUACGAACU,-1.75 ± 0.59,-3.58 ± 0.6
AGGGAGCAAUAUUACGGGCC,-0.233 ± 0.72,-2.79 ± 1.2
AGGAAGCAAUAUUACGGGUU,-1.96 ± 0.15,-3.14 ± 0.15
UCGAAGCAAUAUUACGCCGC,-2.34 ± 0.63,–
AUUCAGCAAUAUUACGCCGC,-2.45 ± 0.75,-3.28 ± 0.53
CGCGAGCAAUAUUACGGCCA,–,-3.03 ± 0.62
CUUGAGCAAUAUUACGCACC,–,-1.87 ± 0.52
UUAGAGCAAUAUUACGUUCC,-0.481 ± 0.61,–
AACGAGCAAUAUUACGACAG,–,-3.9 ± 0.52
UCUGAGCAAUAUUACGAUAA,–,-3.77 ± 1
UCAUAGCAAUAUUACGAAAC,-2.45 ± 0.56,–
CCCUAGCAAUAUUACGCCUA,–,-4.34 ± 0.72
GCGGAGCAAUAUUACGGCCG,-2.23 ± 1.1,-1.4 ± 0.67
CGUCAGCAAUAUUACGCCGA,-1.38 ± 0.84,-3.27 ± 1.1
UCAAAGCAAUAUUACGUUAC,–,-6.61 ± 0.71
GUCAAGCAAUAUUACGGGGA,–,-4.26 ± 1
CGUUAGCAAUAUUACGUCUC,–,-4.66 ± 1
GGAAAGCAAUAUUACGCCAG,–,-4.1 ± 0.74
CCGAAGCAAUAUUACGAACA,–,-4.23 ± 0.59
UGGAAGCAAUAUUACGCAUU,-4.04 ± 0.51,–
AGGAAGCAAUAUUACGCGGC,–,-3.96 ± 1
UACGAGCAAUAUUACGUACC,–,-4.49 ± 1
GUUGAGCAAUAUUACGAGAA,–,-2.04 ± 0.82
